# Substitutions are numbered along the chain they refer to. This is a selection; strong and weak results do not stand in their true shares. Calls are pooled over several reports, among them a noisy single-well screen. Some of the results follow.
# Chains of the proteins cited; added tags and fusions are not shown. Lines headed by an entry give the natural chain unless they say otherwise; changes in a name come on top. A line that says so, or that is headed by a name, gives the form on record, which may keep a tag or linker.
# UniProt A3KFT3: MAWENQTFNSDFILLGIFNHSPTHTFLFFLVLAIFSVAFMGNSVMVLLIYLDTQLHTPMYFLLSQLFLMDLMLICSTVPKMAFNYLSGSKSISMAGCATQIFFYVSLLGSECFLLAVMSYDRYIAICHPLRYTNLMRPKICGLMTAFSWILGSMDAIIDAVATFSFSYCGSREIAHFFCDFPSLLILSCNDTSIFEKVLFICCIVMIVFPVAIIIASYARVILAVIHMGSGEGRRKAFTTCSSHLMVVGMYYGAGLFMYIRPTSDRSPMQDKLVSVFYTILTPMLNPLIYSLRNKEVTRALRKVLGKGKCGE
# UniProt O43869: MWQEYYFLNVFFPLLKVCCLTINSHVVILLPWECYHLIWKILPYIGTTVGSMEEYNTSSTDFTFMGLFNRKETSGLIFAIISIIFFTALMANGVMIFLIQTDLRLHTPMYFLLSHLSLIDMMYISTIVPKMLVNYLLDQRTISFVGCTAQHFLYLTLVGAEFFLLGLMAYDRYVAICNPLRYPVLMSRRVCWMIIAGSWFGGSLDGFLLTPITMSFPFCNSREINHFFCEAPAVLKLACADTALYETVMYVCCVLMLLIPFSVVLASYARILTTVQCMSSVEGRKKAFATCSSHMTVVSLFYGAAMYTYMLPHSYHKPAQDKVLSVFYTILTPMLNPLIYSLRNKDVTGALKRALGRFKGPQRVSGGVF
# UniProt Q8NH01: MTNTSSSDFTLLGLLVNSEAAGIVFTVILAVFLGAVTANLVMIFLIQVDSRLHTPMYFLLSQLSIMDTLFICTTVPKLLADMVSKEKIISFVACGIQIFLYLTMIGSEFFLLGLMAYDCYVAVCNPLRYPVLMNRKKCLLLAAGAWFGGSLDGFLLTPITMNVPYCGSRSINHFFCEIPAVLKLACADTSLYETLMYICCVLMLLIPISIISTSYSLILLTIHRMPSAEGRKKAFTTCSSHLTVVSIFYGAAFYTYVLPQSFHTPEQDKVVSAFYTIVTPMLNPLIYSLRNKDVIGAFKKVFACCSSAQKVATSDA
# UniProt Q8NG77: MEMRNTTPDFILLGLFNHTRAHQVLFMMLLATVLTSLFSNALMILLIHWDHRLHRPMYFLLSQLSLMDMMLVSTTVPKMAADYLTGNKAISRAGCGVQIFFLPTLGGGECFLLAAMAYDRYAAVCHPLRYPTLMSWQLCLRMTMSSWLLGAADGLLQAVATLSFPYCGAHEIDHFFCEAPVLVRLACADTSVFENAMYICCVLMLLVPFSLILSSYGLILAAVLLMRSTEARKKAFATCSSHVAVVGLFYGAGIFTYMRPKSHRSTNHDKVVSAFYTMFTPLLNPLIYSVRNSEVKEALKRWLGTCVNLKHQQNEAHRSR
# OR2M2, as listed by the source: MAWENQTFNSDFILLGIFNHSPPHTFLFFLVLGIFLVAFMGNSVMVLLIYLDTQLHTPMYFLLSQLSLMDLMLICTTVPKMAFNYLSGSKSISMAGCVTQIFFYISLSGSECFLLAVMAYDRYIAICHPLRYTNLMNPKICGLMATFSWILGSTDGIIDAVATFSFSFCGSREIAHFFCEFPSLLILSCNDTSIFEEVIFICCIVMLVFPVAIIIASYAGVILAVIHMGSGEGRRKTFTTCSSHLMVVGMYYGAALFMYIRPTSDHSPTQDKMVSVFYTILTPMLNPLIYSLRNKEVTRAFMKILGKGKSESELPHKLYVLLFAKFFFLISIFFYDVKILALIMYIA
# OR2M7, as listed by the source: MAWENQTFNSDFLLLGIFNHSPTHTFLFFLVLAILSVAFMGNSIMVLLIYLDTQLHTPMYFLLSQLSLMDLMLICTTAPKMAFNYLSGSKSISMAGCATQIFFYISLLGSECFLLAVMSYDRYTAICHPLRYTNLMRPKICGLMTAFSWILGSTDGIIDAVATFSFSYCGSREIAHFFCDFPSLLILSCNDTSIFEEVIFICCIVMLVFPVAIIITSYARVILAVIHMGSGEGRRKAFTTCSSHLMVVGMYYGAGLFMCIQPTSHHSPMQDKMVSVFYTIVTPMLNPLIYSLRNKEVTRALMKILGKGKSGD
# Tests used:
# Details in all cases: stereoisomer not certain
# OR2L3 = system: T1, OR2L3
# T1 sequence (whole entry): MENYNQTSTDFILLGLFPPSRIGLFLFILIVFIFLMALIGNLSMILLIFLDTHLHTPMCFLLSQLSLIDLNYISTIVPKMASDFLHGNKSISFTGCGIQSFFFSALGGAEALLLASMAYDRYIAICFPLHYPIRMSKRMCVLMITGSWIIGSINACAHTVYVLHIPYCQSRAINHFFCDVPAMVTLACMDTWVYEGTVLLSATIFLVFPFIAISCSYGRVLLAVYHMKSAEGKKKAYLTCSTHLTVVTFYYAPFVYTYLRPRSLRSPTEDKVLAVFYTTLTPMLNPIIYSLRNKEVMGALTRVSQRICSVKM
# In short: (§1)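 Values were gathered from published papers (main text and supplementary material), with extra details requested from the original authors when needed, and checked for typos and inconsistencies. Each receptor–molecule pair is called responsive (active) if the original authors judged the measured signal statistically different from baseline, and non-responsive (inactive) otherwise. Assay methods varied by source, often transient mammalian cell-line luciferase assays. Recorded details include cell line, G-protein, co-transfected protein and tags.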
# OR2L5 (Homo sapiens) = biological target: T2, OR2L5 (Homo sapiens) (UniProt Q8NG80)
# T2 sequence (whole entry): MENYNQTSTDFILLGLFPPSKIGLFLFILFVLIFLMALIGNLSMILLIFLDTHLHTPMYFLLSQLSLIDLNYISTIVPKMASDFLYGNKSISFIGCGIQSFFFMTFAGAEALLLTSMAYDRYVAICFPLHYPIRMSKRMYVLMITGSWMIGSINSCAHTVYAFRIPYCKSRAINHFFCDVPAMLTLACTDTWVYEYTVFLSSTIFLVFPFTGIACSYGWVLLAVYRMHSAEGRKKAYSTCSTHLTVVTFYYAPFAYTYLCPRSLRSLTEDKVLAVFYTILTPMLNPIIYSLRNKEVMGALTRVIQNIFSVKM
# In short: as §1
# OR2L8 = system: T3, OR2L8
# T3 sequence (whole entry): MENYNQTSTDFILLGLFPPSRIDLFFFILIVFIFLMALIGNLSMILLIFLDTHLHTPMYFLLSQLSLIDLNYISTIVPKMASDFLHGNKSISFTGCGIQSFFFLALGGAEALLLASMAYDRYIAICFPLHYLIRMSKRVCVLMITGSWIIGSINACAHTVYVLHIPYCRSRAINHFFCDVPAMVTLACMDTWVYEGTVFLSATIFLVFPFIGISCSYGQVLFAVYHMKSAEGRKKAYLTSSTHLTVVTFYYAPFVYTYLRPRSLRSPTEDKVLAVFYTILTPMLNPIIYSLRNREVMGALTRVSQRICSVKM
# In short: as §1
# OR2M2 [1] = system: T4, OR2M2
# T4 sequence (whole entry): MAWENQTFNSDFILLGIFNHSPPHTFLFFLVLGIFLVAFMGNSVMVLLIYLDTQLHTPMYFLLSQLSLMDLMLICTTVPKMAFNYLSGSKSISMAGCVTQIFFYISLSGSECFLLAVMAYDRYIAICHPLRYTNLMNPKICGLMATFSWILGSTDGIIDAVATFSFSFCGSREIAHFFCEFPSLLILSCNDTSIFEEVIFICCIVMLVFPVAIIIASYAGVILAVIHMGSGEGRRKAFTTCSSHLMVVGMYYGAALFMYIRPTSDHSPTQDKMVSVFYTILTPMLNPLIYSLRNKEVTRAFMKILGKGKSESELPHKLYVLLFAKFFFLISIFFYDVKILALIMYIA
# In short: as §1
# OR2M3 (Homo sapiens) = biological target: T5, OR2M3 (Homo sapiens) (UniProt Q8NG83)
# T5 sequence (whole entry): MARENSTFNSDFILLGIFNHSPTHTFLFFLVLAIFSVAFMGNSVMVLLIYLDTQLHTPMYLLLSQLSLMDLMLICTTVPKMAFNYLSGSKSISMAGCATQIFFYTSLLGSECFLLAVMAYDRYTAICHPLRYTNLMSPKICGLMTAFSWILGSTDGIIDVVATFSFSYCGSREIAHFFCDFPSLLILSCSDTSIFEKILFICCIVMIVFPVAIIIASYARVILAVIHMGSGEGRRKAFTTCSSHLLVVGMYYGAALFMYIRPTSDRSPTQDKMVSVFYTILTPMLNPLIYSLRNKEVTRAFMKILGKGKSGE
# In short: as §1
# OR2M4 (Homo sapiens) = biological target: T6, OR2M4 (Homo sapiens) (UniProt Q96R27)
# T6 sequence (whole entry): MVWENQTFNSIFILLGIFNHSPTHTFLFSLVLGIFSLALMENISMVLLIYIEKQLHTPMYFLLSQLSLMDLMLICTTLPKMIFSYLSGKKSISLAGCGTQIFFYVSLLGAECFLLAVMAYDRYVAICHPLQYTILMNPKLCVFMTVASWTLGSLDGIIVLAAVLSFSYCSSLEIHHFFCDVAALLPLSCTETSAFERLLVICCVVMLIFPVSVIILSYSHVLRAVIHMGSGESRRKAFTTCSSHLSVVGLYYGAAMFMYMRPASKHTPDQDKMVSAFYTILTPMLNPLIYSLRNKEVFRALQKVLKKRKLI
# In short: as §1
# OR2M7 (Homo sapiens) = biological target: T7, OR2M7 (Homo sapiens) (UniProt Q8NG81)
# T7 sequence (whole entry): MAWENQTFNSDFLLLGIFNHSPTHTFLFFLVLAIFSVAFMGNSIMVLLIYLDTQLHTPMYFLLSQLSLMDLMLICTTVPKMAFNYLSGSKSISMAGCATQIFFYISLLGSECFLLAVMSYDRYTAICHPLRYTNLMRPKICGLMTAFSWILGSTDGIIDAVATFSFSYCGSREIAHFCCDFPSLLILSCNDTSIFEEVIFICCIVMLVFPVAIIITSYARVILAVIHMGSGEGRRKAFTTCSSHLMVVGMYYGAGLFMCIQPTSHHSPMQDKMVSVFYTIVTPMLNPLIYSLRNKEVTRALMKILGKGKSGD
# In short: as §1
# OR2M7 [2] = system: T8, OR2M7
# T8 sequence (whole entry): T7 sequence (whole entry) with F35L, V78A, C178F
# In short: as §1
# OR2M7 [3] = system: T9, OR2M7; remark: listed apart in the source
# T9 sequence (whole entry): T7 sequence (whole entry) with F35L, V78A, C178F, D191N
# In short: as §1
# OR2S1 = system: T10, OR2S1
# T10 sequence (whole entry): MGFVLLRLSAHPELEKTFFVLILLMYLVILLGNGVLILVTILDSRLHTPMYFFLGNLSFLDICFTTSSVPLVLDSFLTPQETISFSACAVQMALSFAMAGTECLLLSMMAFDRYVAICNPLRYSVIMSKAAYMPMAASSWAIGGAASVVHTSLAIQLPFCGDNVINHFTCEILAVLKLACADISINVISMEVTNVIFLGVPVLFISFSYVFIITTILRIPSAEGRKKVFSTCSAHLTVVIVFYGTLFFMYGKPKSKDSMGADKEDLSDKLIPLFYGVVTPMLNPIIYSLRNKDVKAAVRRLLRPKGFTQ
# In short: as §1
# OR2T10 (Homo sapiens) = biological target: T11, OR2T10 (Homo sapiens) (UniProt Q8NGZ9)
# T11 sequence (whole entry): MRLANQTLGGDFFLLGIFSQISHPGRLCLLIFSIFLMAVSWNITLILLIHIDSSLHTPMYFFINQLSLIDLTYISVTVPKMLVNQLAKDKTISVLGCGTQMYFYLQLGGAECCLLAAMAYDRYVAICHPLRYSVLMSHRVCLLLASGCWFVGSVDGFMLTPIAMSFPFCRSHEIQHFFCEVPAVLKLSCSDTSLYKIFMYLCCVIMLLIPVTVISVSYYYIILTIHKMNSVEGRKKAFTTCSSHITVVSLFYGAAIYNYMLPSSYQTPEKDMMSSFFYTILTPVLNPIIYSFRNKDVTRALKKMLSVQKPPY
# In short: as §1
# OR2L8 (Homo sapiens) = OR2L8 (Homo sapiens) (UniProt Q8NGY9)
# In short: as §1
# OR2M2 (Homo sapiens) = OR2M2 (Homo sapiens) (UniProt Q96R28)
# In short: as §1
# OR2M5 (Homo sapiens) = OR2M5 (Homo sapiens) (UniProt A3KFT3)
# In short: as §1
# OR2S2 (Homo sapiens) = OR2S2 (Homo sapiens) (UniProt Q9NQN1)
# In short: as §1
# OR2T1 (Homo sapiens) = OR2T1 (Homo sapiens) (UniProt O43869)
# In short: as §1
# OR2T11 (Homo sapiens) = OR2T11 (Homo sapiens) (UniProt Q8NH01)
# In short: as §1
# OR2T12 (Homo sapiens) = OR2T12 (Homo sapiens) (UniProt Q8NG77)
# In short: as §1
# OR2M2 [4] = system: OR2M2; remark: listed apart in the source
# In short: as §1
# OR2M2 [5] = system: OR2M2; remark: listed apart in the source
# In short: as §1
Structure (SMILES),odorant receptor agonist call (OR2L3),odorant receptor agonist call (OR2L5 (Homo sapiens)),odorant receptor agonist call (OR2L8),odorant receptor agonist call (OR2M2 [1]),odorant receptor agonist call (OR2M3 (Homo sapiens)),odorant receptor agonist call (OR2M4 (Homo sapiens)),odorant receptor agonist call (OR2M7 (Homo sapiens)),odorant receptor agonist call (OR2M7 [2]),odorant receptor agonist call (OR2M7 [3]),odorant receptor agonist call (OR2S1),odorant receptor agonist call (OR2T10 (Homo sapiens)),odorant receptor agonist call (OR2L8 (Homo sapiens)),odorant receptor agonist call (OR2M2 (Homo sapiens)),odorant receptor agonist call (OR2M5 (Homo sapiens)),odorant receptor agonist call (OR2S2 (Homo sapiens)),odorant receptor agonist call (OR2T1 (Homo sapiens)),odorant receptor agonist call (OR2T11 (Homo sapiens)),odorant receptor agonist call (OR2T12 (Homo sapiens)),odorant receptor agonist call (OR2M2 [4]),odorant receptor agonist call (OR2M2 [5])
CCCCCOC(C)=O,inactive,inactive,inactive,inactive,inactive,inactive,inactive,inactive,inactive,inactive,active,,,,,,,,,
CC12C=CCC1C1CCC3CC(=O)CCC3(C)C1CC2 (stereo not drawn),inactive,inactive,inactive,inactive,inactive,inactive,inactive,inactive,inactive,inactive,inactive,inactive,inactive,inactive,inactive,inactive,inactive,inactive,,
CC1COCc2cc3c(cc21)C(C)(C)C(C)C3(C)C (stereo not drawn),active,active,active,active,inactive,inactive,active,active,active,active,active,,,,,,,,,
CCCCCCCCCCC=O,inactive,inactive,inactive,inactive,inactive,inactive,inactive,inactive,inactive,inactive,inactive,,,,,,,,,
CC(=O)OC(C)(C)C1CC=C(C)CC1 (stereo not drawn),inactive,inactive,inactive,inactive,inactive,inactive,inactive,inactive,inactive,inactive,,,,,,,,,,
O=CCc1ccccc1,inactive,active,inactive,inactive,inactive,inactive,inactive,inactive,inactive,inactive,inactive,,,,,,,,,
O=C1CCCCCCCCCCCC(=O)OCCO1,inactive,inactive,inactive,inactive,inactive,inactive,inactive,active,inactive,inactive,inactive,,,,,,,,,
CC12CCC(CC1)C(C)(C)O2,inactive,inactive,inactive,inactive,inactive,inactive,inactive,inactive,inactive,inactive,inactive,,,,,,,,,
CCCCCCCCCC=O,inactive,inactive,inactive,inactive,inactive,inactive,inactive,inactive,inactive,inactive,inactive,,,,,,,,,
C=CC(C)(O)CCC=C(C)C (stereo not drawn),inactive,inactive,inactive,inactive,inactive,inactive,inactive,inactive,inactive,inactive,inactive,,,,,,,,,
C=CCc1ccc(OC(C)=O)c(OC)c1,inactive,active,inactive,inactive,inactive,inactive,inactive,inactive,inactive,inactive,inactive,,,,,,,,,
CCC=CCCO,inactive,inactive,inactive,inactive,inactive,inactive,inactive,inactive,inactive,inactive,inactive,,,,,,,,,
COc1cc(C)ccc1O,inactive,inactive,inactive,inactive,inactive,inactive,active,inactive,inactive,inactive,inactive,,,,,,,,,
CC=Cc1ccc(O)c(OC)c1,inactive,active,inactive,active,inactive,inactive,inactive,active,inactive,active,inactive,,,,,,,,,
CC(=O)OCC=C(C)CCC=C(C)C,inactive,active,inactive,active,inactive,inactive,inactive,inactive,inactive,inactive,inactive,,inactive,,,,,,inactive,inactive
CC12CCC(C1)C(C)(C)C2=O (stereo not drawn),inactive,inactive,inactive,inactive,inactive,inactive,inactive,inactive,inactive,inactive,inactive,,,,,,,,,
CC(C)C(=O)O,inactive,inactive,inactive,inactive,inactive,inactive,inactive,inactive,inactive,inactive,inactive,,,,,,,,,
CC(C)CCC(=O)O,inactive,inactive,inactive,inactive,inactive,inactive,inactive,inactive,inactive,inactive,inactive,,,,,,,,,
CCCC(=O)O,inactive,inactive,inactive,inactive,inactive,inactive,inactive,inactive,inactive,inactive,inactive,,,,,active,,,,
CCCCCCCCOC(C)=O,inactive,inactive,inactive,inactive,inactive,inactive,inactive,inactive,inactive,inactive,inactive,,,,,,,,,
CC(C)C=O,inactive,inactive,inactive,inactive,inactive,inactive,inactive,inactive,inactive,inactive,inactive,,,,,,,,,
c1ccc(Oc2ccccc2)cc1,inactive,inactive,inactive,inactive,inactive,inactive,inactive,inactive,inactive,inactive,inactive,,,,,,,,,
COc1ccccc1O,inactive,inactive,inactive,inactive,inactive,inactive,inactive,inactive,inactive,inactive,inactive,,,,,,,,,

# Only odorant receptor agonist call (OR2L8 (Homo sapiens)) and odorant receptor agonist call (OR2M3 (Homo sapiens)), for some of the entries so far:
Structure (SMILES),odorant receptor agonist call (OR2L8 (Homo sapiens)),odorant receptor agonist call (OR2M3 (Homo sapiens))
C=CC(C)(O)CCC=C(C)C (stereo not drawn),,inactive
CCCCCCCCOC(C)=O,,inactive
